# PubChem BioAssay AID652272 – Drosophila RNAi Screening Center | 2013
# Assay: 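Genome-wide knock-down search for components of Hedgehog signalling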 (primary screen)
# System: Drosophila clone 8 (Cl8) cells
# Knock-down reagent: long dsRNA against Drosophila genes
# Detection: 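Plate reader light from a firefly reporter under a ptc promoter fragment that responds to Hedgehog, with Renilla light as transfection reference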
# Scale: firefly Hh reporter signal: higher = more ptc reporter light; Renilla reference signal: higher = more Renilla control light
# Call rule: 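Hit when the z-score averaged over two replicates is under -2 or over +3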
# Meaning of the calls: active = hit: reporter lowered or raised; inactive = not a hit
# The deposit covers about 21,000 reagents; shown is an unselected part of those that have a named target and a result. In the full data, 503 (2.4%) were called active. 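Raw plate light values, not normalised; calls rest on replicate z-scores that were not deposited; hits include reporter decreases as well as increases.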 A plus sign joins genes that one reagent is predicted to hit. Not given: the amount of reagent, the time to read-out.
gene,amplicon,"firefly Hh reporter signal, replicate 1","firefly Hh reporter signal, replicate 2","firefly Hh reporter signal, replicate 3","Renilla reference signal, replicate 1","Renilla reference signal, replicate 2",activity call
e(y)2 (enhancer of yellow 2),DRSC19640,56806,1.79e5,,2091,7355,inactive
CG5065,DRSC06912,80288,45377,,1957,3190,inactive
AnxB10 (Annexin B10),DRSC20677,1.61e5,92589,,3488,2234,inactive
CG10674,DRSC09775,70556,62048,,6929,4743,inactive
CG13077,DRSC02181,89328,35601,,2064,3529,inactive
CG34165,DRSC01970,57312,1.74e5,16055,1963,12528,active
tilB (touch insensitive larva B),DRSC20634,41174,1.31e5,,1211,6324,inactive
CG8777,DRSC07263,63852,47227,,2523,1795,inactive
CG11044,DRSC06026,84822,73164,,2480,4845,inactive
CG32170,DRSC09452,1.93e5,,,2977,,inactive
CG42324,DRSC08431,57066,33771,,2042,2228,inactive
CG42324,DRSC08432,85447,50161,,3194,3792,inactive
GstE13 (Glutathione S transferase E13),DRSC06083,1.09e5,45792,,3575,1308,inactive
Atg18a (Autophagy-related 18a),DRSC10943,1.48e5,70808,,6121,2749,inactive
Or42a (Odorant receptor 42a),DRSC04912,82833,67577,,1837,4976,inactive
Non3 (Novel nucleolar protein 3),DRSC16359,1.29e5,79169,,5799,3444,inactive
hec (hector),DRSC19895,1.02e5,2.20e5,,2480,8745,inactive
sgll (sugarlethal),DRSC15442,64147,80642,,2210,2276,inactive
CG15073,DRSC06506,1.23e5,72731,,3059,4845,inactive
Obp85a (Odorant-binding protein 85a),DRSC14362,47789,98763,,1402,2905,inactive
CG15517,DRSC15056,1.02e5,1.84e5,,4072,5417,inactive
CG46491,DRSC06565,1.13e5,1.10e5,,5387,4400,inactive
CG46491,DRSC06566,77112,41357,,2232,3120,inactive
dgt5 (dim gamma-tubulin 5),DRSC07280,52388,29411,,2586,1417,inactive
CG12519,DRSC10311,1.05e5,1.26e5,,3819,3040,inactive
cv-d (crossveinless d),DRSC16522,80072,88669,,3004,3264,inactive
cv-d (crossveinless d),DRSC16524,75959,60630,,2326,1746,inactive
cv-d (crossveinless d),DRSC16526,95320,98226,,2275,3240,inactive
rho-5 (rhomboid-5),DRSC02847,1.42e5,91904,,3835,7761,inactive
CG18343,DRSC06726,74418,48027,,1702,3493,inactive
Prosbeta5 (Proteasome beta5 subunit),DRSC07517,65158,40308,,2454,4291,active
CG14273,DRSC02377,1.46e5,89029,,3649,6882,inactive
CG5139,DRSC00681,1.36e5,1.29e5,,3488,3504,inactive
Ugt37B1 (UDP-glycosyltransferase family 37 member B1),DRSC03225,1.11e5,35916,,2776,3994,inactive
Ppr-Y,DRSC20892,7.62e5,2.48e5,,42918,6305,inactive
eIF2Balpha (eukaryotic translation initiation factor 2B subunit alpha),DRSC16332,1.21e5,64929,,3092,2085,inactive
Spindly,DRSC00430,1.36e5,63178,,3261,6439,inactive
CG14535,DRSC02393,84544,50006,,2325,4988,inactive
Mid1,DRSC04230,94732,5.44e5,59346,2453,31883,inactive
Mid1,DRSC04231,1.17e5,65066,,2908,5819,inactive
Mid1,DRSC04308,1.02e5,53456,,2662,5236,inactive
stol (stolid),DRSC01956,81232,39741,,2205,3724,inactive
CG18467,DRSC06758,74932,50460,,2048,3384,inactive
CG10799,DRSC06002,73803,51125,,2017,3506,inactive
Dh31-R (Diuretic hormone 31 Receptor),DRSC06647,75056,42072,,2160,3462,inactive
Dh31-R (Diuretic hormone 31 Receptor),DRSC06669,81098,56644,,2172,4338,inactive
Hsp70Bb + Hsp70Bbb,DRSC15885,1.23e5,1.75e5,,3766,4387,inactive
lncRNA:CR42859 (long non-coding RNA:CR42859),DRSC00103,5.55e5,3.00e5,,25888,11825,inactive
CG31855,DRSC02968,60281,45136,,1642,3861,inactive
Npc2g (Niemann-Pick type C-2g),DRSC14296,1.12e5,1.46e5,,3747,8756,inactive
CG7099,DRSC03006,67410,94049,,3104,3537,inactive
AANATL5 (Arylalkylamine N-acetyltransferase-like 5),DRSC05994,99549,88849,,2665,6728,inactive
rl (rolled),DRSC07833,1.09e5,53819,,3241,4039,inactive
rl (rolled),DRSC20742,75152,1.71e5,,2736,6995,inactive
CG1421,DRSC03707,87973,45125,,2048,4224,inactive
betaTub56D (beta-Tubulin at 56D),DRSC07583,58656,43660,,1626,3147,inactive
CG5004,DRSC19929,86784,1.65e5,,1699,7284,inactive
CG5004,DRSC19930,71958,2.66e5,,930,11049,inactive
CG5004,DRSC20123,60684,86604,,1642,3475,inactive
GluRIB (Glutamate receptor IB),DRSC10258,33097,73035,98295,4742,6609,inactive
GluRIB (Glutamate receptor IB),DRSC11177,20593,46816,71570,3776,4532,inactive
Npc2c (Niemann-Pick type C-2c),DRSC15523,74071,1.17e5,,2916,3480,inactive
Tollo,DRSC11305,78467,,,3238,1901,inactive
pinta,DRSC14698,1.04e5,86602,,4827,3728,inactive
Oseg5 (Outer segment 5),DRSC03209,1.32e5,66460,,3560,6725,inactive
CG34430,DRSC06499,80122,48873,,1954,4582,inactive
wge (winged eye),DRSC15246,1.34e5,1.04e5,,6985,5351,inactive
wge (winged eye),DRSC15672,5.37e5,81370,,29656,2891,inactive
CG15475,DRSC02486,83516,59104,,2057,5296,inactive
CG31538,DRSC12059,1.79e5,,,3355,,inactive
Exo70 (Exocyst 70),DRSC10774,31043,48392,,3276,3175,inactive
ppk17 (pickpocket 17),DRSC02252,1.08e5,65556,,2906,5942,inactive
Hibch (3-hydroxyisobutyryl-CoA hydrolase),DRSC15705,1.55e5,1.15e5,,5864,3088,inactive

Ordered by “Renilla reference signal, replicate 1” (highest first): 10 of the entries above.
gene,amplicon,"firefly Hh reporter signal, replicate 1","firefly Hh reporter signal, replicate 2","firefly Hh reporter signal, replicate 3","Renilla reference signal, replicate 1","Renilla reference signal, replicate 2",activity call
wge (winged eye),DRSC15672,5.37e5,81370,,29656,2891,inactive
wge (winged eye),DRSC15246,1.34e5,1.04e5,,6985,5351,inactive
pinta,DRSC14698,1.04e5,86602,,4827,3728,inactive
Oseg5 (Outer segment 5),DRSC03209,1.32e5,66460,,3560,6725,inactive
CG31538,DRSC12059,1.79e5,,,3355,,inactive
Exo70 (Exocyst 70),DRSC10774,31043,48392,,3276,3175,inactive
Tollo,DRSC11305,78467,,,3238,1901,inactive
ppk17 (pickpocket 17),DRSC02252,1.08e5,65556,,2906,5942,inactive
CG15475,DRSC02486,83516,59104,,2057,5296,inactive
CG34430,DRSC06499,80122,48873,,1954,4582,inactive
